Consider 71 molecules from the supplement of paper PMC4807443.

Where a name gives a salt, the structure may show the parent alone. Some of the results follow. The numbers are fractions of the control, whatever unit the source prints. Most values lie at the level of the controls, where differences are scatter.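 A lentiviral reporter stably expressed in MIN6 mouse insulinoma beta cells uses Pdx1 and Ins1 promoters to drive separate nucleus-targeted fluorescent proteins; automated imaging with Hoechst nuclear stain counted cells. Possible hits were drugs shifting Ins1 promoter signal more than two median absolute deviations from DMSO controls, with Pdx1 activity roughly normal.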

The test deals with MIN6. The test can be described thus: % Pdx1+ Ins1+ (double-positive, mature) cells relative to DMSO control (fold of DMSO control); higher = more mature Ins1 promoter-active cells. Conditions: 8.5 µM; 48 h; glucose 5 mM.
Take `CCN(CCCc1ccccc1)CCCc1ccccc1` [Alverine citrate salt]: the “% Pdx1+ Ins1+” value came out at 1.08.
As for `CCN(CC)C(=O)N1CCN(C)CC1` [Diethylcarbamazine citrate], the figure is 1.1; as for `CCCC(C(=O)OCCN(CC)CC)(c1ccccc1)c1ccccc1` [Proadifen hydrochloride], 0.856.
Turning to `C=CC[N@@+]12CC[C@@]34c5ccccc5N5/C=C6/[C@H]7C[C@H]8[C@@]9(CC[N@@+]8(CC=C)C/C7=C/CO)c7ccccc7N(/C=C(/[C@@H](C[C@@H]31)/C(=C\CO)C2)[C@H]54)[C@@H]69` [Alcuronium chloride], the “% Pdx1+ Ins1+” value amounted to 0.825.
Regarding `C[C@H](CCC(=O)NCC(=O)O)[C@H]1CC[C@H]2[C@@H]3[C@H](O)C[C@@H]4C[C@H](O)CC[C@]4(C)[C@H]3C[C@H](O)[C@]12C` [Glycocholic acid], the “% Pdx1+ Ins1+” value is 0.937.
In the case of `Clc1ccc(COC(Cn2ccnc2)c2ccc(Cl)cc2Cl)cc1` (stereo unspecified) [Econazole nitrate], the “% Pdx1+ Ins1+” value was determined as 1.01.
As for `Clc1ccccc1C(c1ccccc1)(c1ccccc1)n1ccnc1` [Clotrimazole], the figure is 0.972.
The figure for `N=C(N)NS(=O)(=O)c1ccc(N)cc1` [Sulfaguanidine] is 1.12.
The figure for `NC(=O)c1cc[n+](CC2=C(C(=O)[O-])N3C(=O)[C@@H](NC(=O)[C@@H](c4ccccc4)S(=O)(=O)O)[C@H]3SC2)cc1` [Cefsulodin sodium salt] is 1.03; for `CC1=C(/C=C/C(C)=C/C=C/C(C)=C/C(=O)O)C(C)(C)CCC1` [Retinoic acid] it is 1.
As for `CCC1(c2ccccc2)NC(=O)N(C)C1=O` (stereo unspecified) [Mephenytoin], the “% Pdx1+ Ins1+” value was 0.946.
Turning to `CCc1c(C)[nH]c2c1C(=O)C(CN1CCOCC1)CC2` (stereo unspecified) [Molindone hydrochloride], the “% Pdx1+ Ins1+” value worked out at 0.936.
As for `Cc1ncc(CO)c(CO)c1O` [Pyridoxine hydrochloride], the figure is 0.909; as for `CC(=O)O[C@]1(C(C)=O)CC[C@H]2[C@@H]3C=C(Cl)C4=CC(=O)[C@@H]5C[C@@H]5[C@]4(C)[C@H]3CC[C@@]21C` [Cyproterone acetate], 0.913.
As for `O=C(O)COCCN1CCN(C(c2ccccc2)c2ccc(Cl)cc2)CC1` (stereo unspecified) [Cetirizine dihydrochloride], the figure is 0.773.
With `N[C@@H]1CONC1=O` [D-cycloserine], the “% Pdx1+ Ins1+” value was 0.904.
Take `Clc1ccc(Cn2c(CN3CCCC3)nc3ccccc32)cc1` [Clemizole hydrochloride]: the “% Pdx1+ Ins1+” value worked out at 1.21.
Take `COc1cc2nc(N(C)CCCNC(=O)C3CCCO3)nc(N)c2cc1OC` (stereo unspecified) [Alfuzosin hydrochloride]: the “% Pdx1+ Ins1+” value came out at 0.92.
The figure for `O=C(O)/C=C/c1ccc(O)c(O)c1` [Caffeic acid] is 0.9; for `N=C(N)NC(=O)Cc1c(Cl)cccc1Cl` [Guanfacine hydrochloride] it is 0.639; for `CN1C(=O)CC(c2ccccc2)C1=O` (stereo unspecified) [Phensuximide] it is 0.899.
The figure for `C[n+]1cc2c3c(ccc2c2ccc4cc5c(cc4c21)OCO5)OCO3` [Sanguinarine] is 0.213; for `Clc1ccc(CSC(Cn2ccnc2)c2ccc(Cl)cc2Cl)cc1` (stereo unspecified) [Sulconazole nitrate] it is 1.08; for `CCCN(CCC)S(=O)(=O)c1ccc(C(=O)O)cc1` [Probenecid] it is 0.902.
`C[C@]12CC[C@@H]3c4ccc(O)cc4CC[C@H]3[C@@H]1CC[C@@H]2O` [Estradiol-17 beta]: the “% Pdx1+ Ins1+” value was 0.959.
The figure for `CN(C)CCOC(c1ccccc1)c1ccccc1` [Diphenhydramine hydrochloride] is 1.09; for `NC(Cc1cc(I)c(Oc2cc(I)c(O)c(I)c2)c(I)c1)C(=O)O` (stereo unspecified) [Thyroxine (L)] it is 0.881; for `CN(C)CC/C=C1/c2ccccc2Sc2ccc(Cl)cc21` [Chlorprothixene hydrochloride] it is 0.829.
Take `CC(=O)[C@H]1CC[C@H]2[C@@H]3CCC4=CC(=O)CC[C@]4(C)[C@H]3CC[C@]12C` [Progesterone]: the “% Pdx1+ Ins1+” value is 0.92.
As for `C[C@]12CCC(=O)C=C1CC[C@@H]1[C@@H]2[C@@H](O)C[C@@]2(C)[C@H]1CC[C@]2(O)C(=O)CO` [Hydrocortisone base], the figure is 0.964; as for `CCCCCCC[N+](CC)(CC)CCCCc1ccc(Cl)cc1` [Clofilium tosylate], 0.421; as for `CNCCCC1c2ccccc2C=Cc2ccccc21` [Protriptyline hydrochloride], 0.763.
The figure for `C[N+]1(CCCCC[N+]2(C)CCCC2)CCCC1` [Pentolinium bitartrate] is 1.07.
The figure for `COc1ccc(CCN(C)CCCC(C#N)(c2ccc(OC)c(OC)c2)C(C)C)cc1OC` (stereo unspecified) [Verapamyl hydrochloride] is 1.08; for `CCCc1cc(=O)[nH]c(=S)[nH]1` [Propylthiouracil] it is 0.983; for `Fc1ccc(C(c2ccc(F)cc2)N2CCN(C/C=C/c3ccccc3)CC2)cc1` [Flunarizine dihydrochloride] it is 0.911.
With `N=C(N)c1ccc(OCCCCCOc2ccc(C(=N)N)cc2)cc1` [Pentamidine isethionate], the “% Pdx1+ Ins1+” value was 0.756.
The figure for `CC(=O)Nc1cc2ccccc2oc1=O` [3-Acetamidocoumarin] is 0.853; for `COc1cccc2c1C(=O)c1c(O)c3c(c(O)c1C2=O)C[C@@](O)(C(=O)CO)C[C@@H]3O[C@H]1C[C@H](N)[C@H](O)[C@H](C)O1` [Doxorubicin hydrochloride] it is 0.996; for `CC1(C)S[C@@H]2[C@H](NC(=O)[C@H](N)c3ccc(O)cc3)C(=O)N2[C@H]1C(=O)O` [Amoxicillin] it is 1.03.
The figure for `CN[C@@H]1[C@H](O[C@H]2[C@H](O[C@H]3[C@H](O)[C@@H](O)[C@H](N=C(N)N)[C@@H](O)[C@@H]3N=C(N)N)O[C@@H](C)[C@]2(O)C=O)O[C@@H](CO)[C@H](O)[C@H]1O` [Streptomycin sulfate] is 0.979; for `COC(=O)Nc1nc2cc(C(=O)c3ccccc3)ccc2[nH]1` [Mebendazole] it is 1.16; for `CC1(C)S[C@@H]2[C@H](NC(=O)[C@H](NC(=O)N3CCNC3=O)c3ccccc3)C(=O)N2[C@H]1C(=O)O` [Azlocillin sodium salt] it is 1.12.
As for `Clc1cnccn1` [2-Chloropyrazine], the “% Pdx1+ Ins1+” value is 0.927.
As for `Cc1cc2c(cc1S(N)(=O)=O)S(=O)(=O)CCC2` [Meticrane], the figure is 1.07; as for `CN(C)/N=N/c1[nH]cnc1C(N)=O` [Dacarbazine], 0.947; as for `CC[N+](C)(C)Cc1ccccc1Br` [Bretylium tosylate], 0.864.
As to `C[N+](C)(C)CCCCCC[N+](C)(C)C` [Hexamethonium dibromide dihydrate], the “% Pdx1+ Ins1+” value amounted to 1.17.
As to `CN1C(C)(C)CCCC1(C)C` [Pempidine tartrate], the “% Pdx1+ Ins1+” value came to 0.869.
In the case of `Cc1onc(-c2c(Cl)cccc2Cl)c1C(=O)N[C@@H]1C(=O)N2[C@@H]1SC(C)(C)[C@@H]2C(=O)O` [Dicloxacillin sodium salt], the “% Pdx1+ Ins1+” value amounted to 1.07.
Consider `CC(CCc1ccccc1)NCC(O)c1ccc(O)c(C(N)=O)c1` (stereo unspecified) [Labetalol hydrochloride], for which the “% Pdx1+ Ins1+” value turned out to be 1.07.
Turning to `O=C(O)c1cccnc1Nc1cccc(C(F)(F)F)c1` [Niflumic acid], the “% Pdx1+ Ins1+” value was determined as 0.98.
With `Cc1oncc1C(=O)Nc1ccc(C(F)(F)F)cc1` [Leflunomide], the “% Pdx1+ Ins1+” value was 0.973.
As for `COc1ccc(C(Cl)=C(c2ccc(OC)cc2)c2ccc(OC)cc2)cc1` [Chlorotrianisene], the figure is 1.03; as for `C[N+]1(C)C[C@H](O)C[C@H]1C(=O)[O-]` [Betonicine], 0.897; as for `Cc1cc(C(C)(C)C)c(O)c(C)c1CC1=NCCN1` [Oxymetazoline hydrochloride], 0.908.
With `CN(C)CCCN1c2ccccc2Sc2ccccc21` [Promazine hydrochloride], the “% Pdx1+ Ins1+” value was determined as 0.915.
Regarding `NS(=O)(=O)c1cc(C(=O)O)cc(N2CCCC2)c1Oc1ccccc1` [Piretanide], the “% Pdx1+ Ins1+” value was 0.609.
As for `COc1ccc([C@@H]2CC(=O)c3c(O)cc(O[C@@H]4O[C@H](CO[C@@H]5O[C@@H](C)[C@H](O)[C@@H](O)[C@H]5O)[C@@H](O)[C@H](O)[C@H]4O)cc3O2)cc1O` [Hesperidin], the figure is 1.01; as for `C[C@]1(OC(=O)/C=C/c2ccccc2)C[C@@H](O)[C@]2(O)C=CO[C@@H](O[C@@H]3O[C@H](CO)[C@@H](O)[C@H](O)[C@H]3O)[C@@H]21` [Harpagoside], 1.01.
Regarding `CSc1ccc2c(c1)C(N1CCN(C)CC1)Cc1ccccc1S2` (stereo unspecified) [Methiothepin maleate], the “% Pdx1+ Ins1+” value amounted to 0.797.
As for `COC(=O)[C@H]1[C@H]2C[C@H]3c4[nH]c5ccccc5c4CCN3C[C@@H]2CC[C@@H]1O` [Corynanthine hydrochloride], the figure is 1.01; as for `O=C(C1CCCCC1)N1CC(=O)N2CCc3ccccc3C2C1` (stereo unspecified) [Praziquantel], 1.06; as for `C(=C\c1ccccc1)/CN1CCN(C(c2ccccc2)c2ccccc2)CC1` [Cinnarizine], 1.07.
On to `COc1ccc2c(c1)c(CC(=O)O)c(C)n2C(=O)c1ccc(Cl)cc1` [Indomethacin], for which the “% Pdx1+ Ins1+” value came out at 1.09.
The figure for `Nc1nc2ccc(OC(F)(F)F)cc2s1` [Riluzole hydrochloride] is 0.9.
In the case of `CC(C)(C)NCC(O)COc1cccc2c1CCC(=O)N2` (stereo unspecified) [Carteolol hydrochloride], the “% Pdx1+ Ins1+” value amounted to 0.918.
Take `C=C1c2c(Cl)ccc(O)c2C(=O)C2=C(O)[C@]3(O)C(=O)C(C(N)=O)=C(O)[C@@H](N(C)C)[C@@H]3[C@@H](O)[C@H]12.O=C(O)c1cc(S(=O)(=O)O)ccc1O` [Meclocycline sulfosalicylate]: the “% Pdx1+ Ins1+” value was determined as 0.825.
As for `CCOC(=O)O[C@]1(C(=O)COC(=O)CC)CC[C@H]2[C@@H]3CCC4=CC(=O)C=C[C@]4(C)[C@H]3[C@@H](O)C[C@@]21C` [Prednicarbate], the figure is 0.904; as for `COc1ccc2c(c1OC)C(=O)O[C@@H]2[C@H]1c2c(cc3c(c2OC)OCO3)CCN1C` [Noscapine], 0.948; as for `CC[C@H](C)[C@H](N)C1=N[C@H](C(=O)N[C@@H](CC(C)C)C(=O)N[C@H](CCC(=O)O)C(=O)N[C@H](C(=O)N[C@H]2CCCCNC(=O)[C@H](CC(N)=O)NC(=O)[C@@H](CC(=O)O)NC(=O)[C@H](Cc3cnc[nH]3)NC(=O)[C@@H](Cc3ccccc3)NC(=O)[C@H]([C@@H](C)CC)NC(=O)[C@@H](CCCN)NC2=O)[C@@H](C)CC)CS1` [Bacitracin], 0.993.
